The list shows only some results of the screen, not a fair sample: it is rich in T/C values a quarter to a half above the control, in often repeated tests (any T/C) and in doses without a T/C. Further doses and runs are listed elsewhere. T/C: endpoint of the treated group in % of that of the vehicle group. Some entries give survivors of the animals treated and no T/C: the source files T/C as zero there, which appears to mark a toxic dose or a test without result, not a measured value. Some doses without a T/C left all or most animals alive at the check, yet need not have been tolerated: the source hardly ever lists a survival T/C far under the control, and the zero likely stands for such cases as well. Survivors were counted at the toxicity check, usually on the fifth day, unless a day is given; later deaths do not show. Schedule codes are those of the source, taken here to give the interval after Q, in days (D) or hours (H), and the number of doses after X. Some doses were run more than once; the results are listed from low to high. Some structures stand for samples that the source files as different forms (salt, stereo form or complex); doses refer to the form tested. Additions like (4×) count equal records among those shown. Some schedules carry Z or #; the key to these is not given. For survival time, the PubChem record calls one and a half times the control and up active, and a quarter to a half above the control has no call in these data; cut-offs in other NCI protocols can differ. Some T/C values are followed by the survivors on the day toxicity was checked, most often the fifth; without a count, all were alive then.

The text below walks through data of PubChem BioAssay AID248 (DTP/NCI, 2004).

The subject of this assay is L1210 leukemia ip in BDF1 mice, survival T/C. As to the kind of experiment: NCI In Vivo Anticancer Drug Screen. Data for tumor model L1210 Leukemia (intraperitoneal) in B6D2F1 (BDF1) mice. The settings on record: T/C endpoint: mean survival time, higher T/C = longer survival.
Setting [1] is: dose: 200.0 mg/kg/injection, schedule: Q04DX003 (ip), vehicle: Klucel (hydroxypropylcellulose) (HPC).
The mark [2] stands for this setting: dose: 400.0 mg/kg/injection, schedule: Q01DX009 (ip), vehicle: saline with Tween-80.
[3] abbreviates: dose: 400.0 mg/kg/injection, schedule: Q04DX002 (ip), vehicle: Klucel (hydroxypropylcellulose) (HPC).
Setting [4] is: dose: 200.0 mg/kg/injection, schedule: Q04DX003 (ip), vehicle: saline with Tween-80.
Where [5] appears, read: dose: 400.0 mg/kg/injection, schedule: Q04DX003 (ip), vehicle: saline with Tween-80.
The mark [6] stands for this setting: dose: 20.0 mg/kg/injection, schedule: Q01DX009 (ip), vehicle: Klucel (hydroxypropylcellulose) (HPC).
[7] abbreviates: dose: 200.0 mg/kg/injection, schedule: Q04DX002 (ip), vehicle: Klucel (hydroxypropylcellulose) (HPC).

On to `Cc1ccc([P+](Cc2ccc(Cl)cc2Cl)(c2ccc(C)cc2)c2ccc(C)cc2)cc1`, for which the survivor count is 1 of 6 and 6 of 6 (dose: 25.0 mg/kg/injection, schedule: Q04DX003 (ip), vehicle: Klucel (hydroxypropylcellulose) (HPC)); 0 of 6 (dose: 50.0 mg/kg/injection, schedule: Q04DX003 (ip), vehicle: Klucel (hydroxypropylcellulose) (HPC)); 0 of 6 (dose: 100.0 mg/kg/injection, schedule: Q04DX003 (ip), vehicle: Klucel (hydroxypropylcellulose) (HPC)); 0 of 6 under setting [1]; 0 of 6 (dose: 400.0 mg/kg/injection, schedule: Q04DX003 (ip), vehicle: Klucel (hydroxypropylcellulose) (HPC)).
Take `O=S(=O)(F)c1c(Cl)cccc1C[P+](c1ccccc1)(c1ccccc1)c1ccccc1`: the survivor count is given as 1 of 6 (dose: 25.0 mg/kg/injection, schedule: Q01DX001 (ip), vehicle: saline with Tween-80); 5 of 6 (dose: 50.0 mg/kg/injection, schedule: Q01DX001 (ip), vehicle: saline); 0 of 6 (dose: 100.0 mg/kg/injection, schedule: Q01DX001 (ip), vehicle: saline with Tween-80); 0 of 6 (dose: 100.0 mg/kg/injection, schedule: Q01DX001 (ip), vehicle: saline); 0 of 6 (dose: 200.0 mg/kg/injection, schedule: Q01DX001 (ip), vehicle: saline with Tween-80); 0 of 6 (dose: 400.0 mg/kg/injection, schedule: Q01DX001 (ip), vehicle: saline with Tween-80).
For the compound `CC(=O)Nc1c(Cl)c(Cl)c2c(c1Cl)Cc1cc(F)ccc1-2`, the survivor count (dose: 650.0 mg/kg/injection, schedule: Q01DX Z (ip), vehicle: saline) is recorded as 2 of 6.
Consider `CCCNC(=O)Nc1ccc(C(=O)OCC(C)C)cc1`, for which, under setting [2], the survivor count is 6 of 6.
As to `CCCCOP(=O)(OCCCC)OC(C#N)CCC` (stereo not drawn), the survivor count under setting [3] is 3 of 3.
With `COc1ccccc1[As](=O)(O)CC(O)COc1ccccc1` (stereo not drawn), the survivor count (dose: 50.0 mg/kg/injection, schedule: Q04DX003 (ip), vehicle: saline with Tween-80) was 5 of 6; the survivor count (dose: 100.0 mg/kg/injection, schedule: Q04DX003 (ip), vehicle: saline with Tween-80) is 0 of 6 (2×); the survivor count under setting [4] was 0 of 6; the survivor count under setting [5] is given as 0 of 6.
As to `N#C/C(=C/c1ccc(Cl)cc1)C(=O)O`, the survivor count under setting [3] is 0 of 3.
Consider `Cc1cc(C)c(NC(N)=S)cc1C`, for which, under setting [3], the survivor count is listed as 3 of 3.
In the case of `CCCCCCCCCCCCCCCC[N+]1(CC)CCOCC1`, the T/C reads like this: (dose: 10.0 mg/kg/injection, schedule: Q01DX009 (ip), vehicle: Klucel (hydroxypropylcellulose) (HPC)) 98 [5 of 6 alive], 102, 109, 117 % of control; under setting [6], 87 [5 of 6 alive], 92, 109 % of control. The survivor count is 1 of 3 under setting [6]; 0 of 3 and 5 of 6 (dose: 20.0 mg/kg/injection, schedule: Q01DX009 (ip), vehicle: saline); 6 of 6 (dose: 20.0 mg/kg/injection, schedule: Q04DX002 (ip), vehicle: saline); 0 of 3 and 5 of 6 (dose: 40.0 mg/kg/injection, schedule: Q01DX009 (ip), vehicle: Klucel (hydroxypropylcellulose) (HPC)); 0 of 3 and 1 of 6 (dose: 40.0 mg/kg/injection, schedule: Q01DX009 (ip), vehicle: saline); 2 of 3 (dose: 40.0 mg/kg/injection, schedule: Q04DX002 (ip), vehicle: Klucel (hydroxypropylcellulose) (HPC)). Moreover, the survivor count by setting is: (dose: 100.0 mg/kg/injection, schedule: Q04DX002 (ip), vehicle: Klucel (hydroxypropylcellulose) (HPC)) 0 of 6, 1 of 3, 3 of 3; (dose: 100.0 mg/kg/injection, schedule: Q04DX002 (ip), vehicle: saline) 1 of 3 and 2 of 6; under setting [7], 0 of 6 and 2 of 3; (dose: 200.0 mg/kg/injection, schedule: Q04DX002 (ip), vehicle: saline) 0 of 3 and 0 of 6; under setting [3], 0 of 3 and 0 of 6; (dose: 400.0 mg/kg/injection, schedule: Q04DX002 (ip), vehicle: saline) 0 of 3 and 0 of 6.
With `C=CCOc1cc(C)cc(C)c1C`, the T/C under setting [1] is 126 % of control.
Consider `CC(C)(O)CC(O)(C(F)(F)F)C(F)(F)F`, for which the survivor count by setting is: (dose: 50.0 mg/kg/injection, schedule: Q01DX009 (ip), vehicle: other) 3 of 6; (dose: 100.0 mg/kg/injection, schedule: Q01DX009 (ip), vehicle: other) 3 of 6; (dose: 100.0 mg/kg/injection, schedule: Q01DX009 (ip), vehicle: saline with Tween-80) 3 of 6; (dose: 200.0 mg/kg/injection, schedule: Q01DX009 (ip), vehicle: saline with Tween-80) 1 of 6; under setting [2], 0 of 6.
In the case of `COC(=O)C1=C(c2ccncc2)c2cccc3cccc1c23`, the survivor count (dose: 400.0 mg/kg/injection, schedule: Q04DX003 (ip), vehicle: alcohol) is listed as 1 of 6.
As to `Cc1ccc(S(=O)(=O)OCC(O)C2OCOC3COCOC32)cc1` (stereo not drawn), the T/C (dose: 400.0 mg/kg/injection, schedule: Q01DX001 (ip), vehicle: Klucel (hydroxypropylcellulose) (HPC)) was 126 % of control.
For `Cc1ccc(-n2cccc2)cc1`, the survivor count under setting [7] was 3 of 3.
For the compound `NCCCC(N)C(=O)NCCCCCCNCCCCCCNC(=O)C(N)CCCN` (stereo not drawn), where the note is “dose: 400.0 mg/kg/injection, schedule: Q01DX001 (ip), vehicle: saline”, the survivor count is 0 of 4.
In the case of `O=C(SCc1ccccc1)c1cccnc1`, the survivor count is reported as 3 of 6 under setting [4] and 0 of 6 under setting [5].
With `O=[N+]([O-])/C=C/c1ccc(F)cc1`, the survivor count is listed as 1 of 6 (dose: 150.0 mg/kg/injection, schedule: Q01DX001 (ip), vehicle: alcohol) and 1 of 6 (dose: 300.0 mg/kg/injection, schedule: Q01DX001 (ip), vehicle: alcohol).
